## Primary screen of a compound library

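Whole-cell growth test on Mycobacterium tuberculosis, read after 4 days in a medium based on cholesterol and the lipid DPPC; the read-out is not stated. Tested at 50 µM. Higher reads as more growth inhibition (inferred: compounds with an IC50 in retests scored well above the rest). Size under these conditions: about 69,000 compounds, about 370 of them at 50% or above in at least one test.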

Values are the deposited “Percent Effect”, in %.
The record does not define 0% and 100%; most values in the screen are far below 50% and negative numbers occur (in some assays of this library far below -100).
This is an unselected part of the compounds tested.
Two or more numbers in one place are separate tests of the same structure; such repeats can differ widely.

| # | structure | Percent Effect |
|---|---|---|
| 1 | `O=C(O)C(F)(F)F.[H][C@]12C[C@@H](C(=O)NCCc3cccs3)CO[C@@]1([H])CCN(C1CCC1)C2` | -10.22 |
| 2 | `CCC1CN(CC(=O)NCCN2CCCCCC2)c2ccccc2S1` (configuration not stated) | 33.31 |
| 3 | `Cn1ccnc1CN1CCN(CC(=O)NCC(F)(F)F)CC1` | -3.129 |
| 4 | `COc1cc(NCc2ncc[nH]2)ccc1Br` | -2.183 & 11.69 |
| 5 | `O=C(COc1cccc(Br)c1)N1CCN(c2nccs2)CC1` | -3.544 |
| 6 | `Cc1nc2c(c(C)c1CC(=O)NCc1ccco1)c(=O)[nH]n2C` | 15.88 |
| 7 | `CCN(Cc1cnn(C)c1)S(=O)(=O)N1CCCC1c1ccco1` (configuration not stated) | -0.9666 & 0.1087 |
| 8 | `CN(Cc1cscn1)C1CCN(C(=O)OC(C)(C)C)CC1` | -32.84 |
| 9 | `COCCCN(C)S(=O)(=O)c1ccc(C(F)(F)F)cc1C#N` | -2.535 |
| 10 | `Cc1cc(S(=O)(=O)Nc2onc(C)c2C)sc1C` | 8.19 |
| 11 | `CS(=O)(=O)NC1CCN(c2cccc(F)c2C#N)CC1` | 2.089 |
| 12 | `COc1cccc(C(=O)NCC(O)c2cccs2)c1` (configuration not stated) | 4.185 |
| 13 | `CN(CC(F)(F)F)C(=O)CNC(=O)Cc1cccc(O)c1` | 32.82 |
| 14 | `Cc1cc(NCc2cn(C)nc2-c2cccnc2)n(C)n1` | -9.364 |
| 15 | `Fc1cnccc1CN1CCCC2(CCN(c3ncccn3)CC2)C1.O=C(O)C(F)(F)F` | 7.193 & 1.233 |
| 16 | `[H][C@@]12CN(C(=O)C3CC=CC3)C[C@]1([H])C(=O)N(CCN(C)C)C2` | -2.91 |
| 17 | `CN(Cc1cc2n(n1)CCCNC2)Cc1n[nH]c2c1CCC2` | 4.844 |
| 18 | `OCc1csc(N2CCCN(Cc3ccc(F)cc3)CC2)n1` | -8.683 |
| 19 | `COC(=O)CCC(=O)N1CCc2nc(C(=O)N(C)C)sc2CC1` | 15.54 |
| 20 | `CN1CCC(NC(=O)Nc2cnn(-c3ccccc3Cl)c2)C1=O` (configuration not stated) | 21.69 |
| 21 | `CCC(CC)(CCO)CNC(=O)c1ccon1` | -1.599 |
| 22 | `COCc1ccc(C(=O)N2CC[C@H](O)[C@@H](n3ccnc3)CC2)cc1` | 13.51 |
| 23 | `CN1CCN(CC2CC2)C(=O)c2cnc(N3CCC(CO)CC3)nc21` | -19.92 |
| 24 | `Cc1cc(C)c(C(=O)N2CCN(c3ncccc3C#N)CC2)c(=O)[nH]1` | -6.47 |
| 25 | `Cl.O=C(CCC1CCCC1)NCCn1nc(C2CCNC2)c2cccnc21` (configuration not stated) | -12.36 |
| 26 | `N#CCCSc1sc2c(O)cc(O)nc2c1C#N` | -29.97 |
| 27 | `CC(C)(CNC(=O)CCOc1cccc(F)c1)C(N)=O` | -2.6 |
| 28 | `CCS(=O)(=O)CCCOc1nc(-c2ccccc2Cl)no1` | -10.38 |
| 29 | `CN(C)S(=O)(=O)NCc1cccnc1Oc1ccc(F)cc1F` | -7.219 |
| 30 | `COCCC(=O)N1CCC2(CN(Cc3cccc(F)c3)C2)C1` | 1.708 & -11.16 |
| 31 | `O=C1Nc2ccccc2C12CCCN(Cc1ccncc1)C2` (configuration not stated) | 16.85 |
| 32 | `Cc1ccccc1CN1CCCC1c1cncc(Nc2nncs2)n1` (configuration not stated) | 8.712 |
| 33 | `O=C(NCC[S+]([O-])c1ccccc1)NCC(F)(F)F` (configuration not stated) | -6.887 |
| 34 | `Cc1cccc(CO[C@@H]2CO[C@@]3(CCN(S(=O)(=O)N(C)C)C3)C2)n1.O=C(O)C(F)(F)F` | 2.663 |
| 35 | `COCCN1C(=O)C2(CCC(C(=O)Nc3ccc(F)cc3)CC2)N=C1C` (configuration not stated) | 0.5608 |
| 36 | `CN1CCC2(Cc3ccccc3NC2=O)C1` (configuration not stated) | -17.13 |
| 37 | `COc1ccc(N2CCOCC3(CCCN(c4cnccn4)C3)C2)cc1` (configuration not stated) | -18.49 |
| 38 | `O=C(c1cn(CC(=O)N2CCCC2)c2ccccc12)C1CC1` | 19.81 |
| 39 | `COc1ccccc1C(=O)N(Cc1nc(C)cs1)CC1CCCO1` (configuration not stated) | -2.987 |
| 40 | `CCc1nnc2n1CCN(CC(=O)N(CC)C1=CCCCC1)C2` | -2.682 |
| 41 | `COCC(=O)N1CCCCC1c1nc(N(C)C)ncc1-c1cc(C)no1` (configuration not stated) | -23.24 & -5.839 |
| 42 | `Nc1nc2c(c(NC(Cn3cccn3)c3ccccc3)n1)CCNCC2` (configuration not stated) | 16.1 |
| 43 | `Cc1cnc(CCNC(Cc2ccncc2)C(F)(F)F)s1` (configuration not stated) | 4.952 |
| 44 | `CNc1ccc(CC2CCCN(C(=O)c3cnc(C)nc3)C2)nn1` (configuration not stated) | -25.75 |
| 45 | `COCCN1CCC(Nc2ccc(C#N)cc2F)CC1` | -2.859 |
| 46 | `Cc1cnc(C(=O)NCc2cccnc2OC(C)C)cn1` | -18.27 |
| 47 | `CCNC(=O)c1nnc2ccc(N3CCOCC3)cc2n1` | -18.16 |
| 48 | `O=C1CCC[C@]2(CN(S(=O)(=O)N3CCOCC3)C[C@H]2c2cccnc2)N1` | 2.074 |
| 49 | `CCCn1[nH]cc/c1=N\C(=O)CN1CCCC1Cn1cc(C)cn1` (configuration not stated) | -8.57 |
| 50 | `O=C(CN1CCOC(CNc2cccnn2)C1)NCc1cccs1` (configuration not stated) | -5.356 |
| 51 | `O=C(c1cc2c(s1)CCC2)N1CCCC1Cn1cccn1` (configuration not stated) | 13.3 |
| 52 | `COc1ccc(Nc2c[nH]c(=O)[nH]c2=O)cc1` | -33.93 |
| 53 | `CCOc1ccc(CN2C(=O)CC(CC)(CC)C2=O)nc1` | 12.92 |
| 54 | `CCCN(C)C(=O)c1cc(Br)cc(S(=O)(=O)N2CCOCC2)c1F` | -24.08 |
| 55 | `CC(C)NC(=O)C1(Cc2ccccc2-c2ccccc2)CCCNC1` (configuration not stated) | -1.929 & 1.315 |
| 56 | `CCn1ccc(NS(=O)(=O)c2cccc(CSC)c2)n1` | -26.68 |
| 57 | `O=c1n(CC2CCCCO2)nc(CC2CCNCC2)n1-c1ccccc1` (configuration not stated) | 2.876 |

The values are deposited in ChEMBL (CHEMBL3988442, “University of Dundee, Small-Polar-MMV Screening Library” (2021)).